Measurements: the supplement of paper PMC8728848
The list shows a part of the results.

Key:
Experiment in all cases: glycan array binding signal (z-score within array); higher = stronger binding
Conditions in all cases: glycan notation: IUPAC condensed, linker removed
[1] = molecular target: GlcNAc(b1-2)[GlcNAc(b1-4)]Man(a1-3)[GlcNAc(b1-4)][GlcNAc(b1-2)Man(a1-6)]Man(b1-4)GlcNAc(b1-4)GlcNAc
How it was run: (§1)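 The binding signal is a Z-score computed within each array and averaged over linkers. Arrays of the same protein sequence at different concentrations or buffers were also averaged together. Data originate from 3228 arrays in the Consortium for Functional Glycomics database, kept only where the protein sequence was available.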

[2] = molecular target: GlcNAc(b1-2)[GlcNAc(b1-4)]Man(a1-3)[GlcNAc(b1-4)][GlcNAc(b1-2)[GlcNAc(b1-6)]Man(a1-6)]Man(b1-4)GlcNAc(b1-4)GlcNAc
How it was run: as §1

[3] = molecular target: GlcNAc(b1-2)[GlcNAc(b1-4)]Man(a1-3)[GlcNAc(b1-4)][GlcNAc(b1-2)[GlcNAc(b1-6)]Man(a1-6)]Man(b1-4)GlcNAc(b1-4)[Fuc(a1-6)]GlcNAc
How it was run: as §1

[4] = molecular target: GlcNAc(b1-2)[GlcNAc(b1-6)]Man(a1-6)[GlcNAc(b1-2)Man(a1-3)]Man(b1-4)GlcNAc(b1-4)GlcNAc
How it was run: as §1

[5] = molecular target: GlcNAc(b1-2)[GlcNAc(b1-6)]Man(a1-6)[GlcNAc(b1-2)Man(a1-3)]Man(b1-4)GlcNAc(b1-4)[Fuc(a1-6)]GlcNAc
How it was run: as §1

[6] = molecular target: GlcNAc(b1-2)[GlcNAc(b1-6)]Man(a1-6)[GlcNAc(b1-4)][GlcNAc(b1-2)Man(a1-3)]Man(b1-4)GlcNAc(b1-4)GlcNAc
How it was run: as §1

GlcNAc(b1-3)Fuc = molecular target: GlcNAc(b1-3)Fuc
How it was run: as §1

GlcNAc(b1-3)Gal = molecular target: GlcNAc(b1-3)Gal
How it was run: as §1

[7] = molecular target: GlcNAc(b1-3)Gal(b1-3)GalNAc
How it was run: as §1

GlcNAc(b1-3)Gal(b1-4)Glc = molecular target: GlcNAc(b1-3)Gal(b1-4)Glc
How it was run: as §1

[8] = molecular target: GlcNAc(b1-3)Gal(b1-4)GlcNAc
How it was run: as §1

[9] = molecular target: GlcNAc(b1-3)Gal(b1-4)GlcNAc(b1-2)Man(a1-3)[GlcNAc(b1-3)Gal(b1-4)GlcNAc(b1-2)Man(a1-6)]Man(b1-4)GlcNAc(b1-4)GlcNAc
How it was run: as §1

[10] = molecular target: GlcNAc(b1-3)Gal(b1-4)GlcNAc(b1-2)Man(a1-3)[GlcNAc(b1-3)Gal(b1-4)GlcNAc(b1-2)Man(a1-6)]Man(b1-4)GlcNAc(b1-4)[Fuc(a1-6)]GlcNAc
How it was run: as §1

[11] = molecular target: GlcNAc(b1-3)Gal(b1-4)GlcNAc(b1-2)[GlcNAc(b1-3)Gal(b1-4)GlcNAc(b1-6)]Man(a1-6)[GlcNAc(b1-3)Gal(b1-4)GlcNAc(b1-2)Man(a1-3)]Man(b1-4)GlcNAc(b1-4)GlcNAc
How it was run: as §1

[12] = molecular target: GlcNAc(b1-3)Gal(b1-4)GlcNAc(b1-3)Gal(b1-4)GlcNAc
How it was run: as §1

[13] = molecular target: GlcNAc(b1-3)Gal(b1-4)GlcNAc(b1-3)Gal(b1-4)GlcNAc(b1-2)Man(a1-3)[GlcNAc(b1-3)Gal(b1-4)GlcNAc(b1-3)Gal(b1-4)GlcNAc(b1-2)Man(a1-6)]Man(b1-4)GlcNAc(b1-4)GlcNAc
How it was run: as §1

[14] = molecular target: GlcNAc(b1-3)Gal(b1-4)GlcNAc(b1-3)Gal(b1-4)GlcNAc(b1-2)Man(a1-3)[GlcNAc(b1-3)Gal(b1-4)GlcNAc(b1-3)Gal(b1-4)GlcNAc(b1-2)Man(a1-6)]Man(b1-4)GlcNAc(b1-4)[Fuc(a1-6)]GlcNAc
How it was run: as §1

[15] = molecular target: GlcNAc(b1-3)Gal(b1-4)GlcNAc(b1-3)Gal(b1-4)GlcNAc(b1-2)[GlcNAc(b1-3)Gal(b1-4)GlcNAc(b1-3)Gal(b1-4)GlcNAc(b1-6)]Man(a1-6)[GlcNAc(b1-3)Gal(b1-4)GlcNAc(b1-3)Gal(b1-4)GlcNAc(b1-2)Man(a1-3)]Man(b1-4)GlcNAc(b1-4)[Fuc(a1-6)]GlcNAc
How it was run: as §1

[16] = molecular target: GlcNAc(b1-3)Gal(b1-4)GlcNAc(b1-3)Gal(b1-4)GlcNAc(b1-3)Gal(b1-4)GlcNAc(b1-2)Man(a1-3)[GlcNAc(b1-3)Gal(b1-4)GlcNAc(b1-3)Gal(b1-4)GlcNAc(b1-3)Gal(b1-4)GlcNAc(b1-2)Man(a1-6)]Man(b1-4)GlcNAc(b1-4)GlcNAc
How it was run: as §1

[17] = molecular target: GlcNAc(b1-3)Gal(b1-4)GlcNAc(b1-3)Gal(b1-4)GlcNAc(b1-3)Gal(b1-4)GlcNAc(b1-2)Man(a1-3)[GlcNAc(b1-3)Gal(b1-4)GlcNAc(b1-3)Gal(b1-4)GlcNAc(b1-3)Gal(b1-4)GlcNAc(b1-2)Man(a1-6)]Man(b1-4)GlcNAc(b1-4)[Fuc(a1-6)]GlcNAc
How it was run: as §1

[18] = molecular target: GlcNAc(b1-3)Gal(b1-4)GlcNAc(b1-3)Gal(b1-4)GlcNAc(b1-3)Gal(b1-4)GlcNAc(b1-2)[GlcNAc(b1-3)Gal(b1-4)GlcNAc(b1-3)Gal(b1-4)GlcNAc(b1-3)Gal(b1-4)GlcNAc(b1-6)]Man(a1-6)[GlcNAc(b1-3)Gal(b1-4)GlcNAc(b1-3)Gal(b1-4)GlcNAc(b1-3)Gal(b1-4)GlcNAc(b1-2)Man(a1-3)]Man(b1-4)GlcNAc(b1-4)[Fuc(a1-6)]GlcNAc
How it was run: as §1

[19] = molecular target: GlcNAc(b1-3)Gal(b1-4)GlcNAc(b1-3)Gal(b1-4)GlcNAc(b1-3)Gal(b1-4)GlcNAc(b1-3)Gal(b1-4)GlcNAc(b1-2)Man(a1-3)[GlcNAc(b1-3)Gal(b1-4)GlcNAc(b1-3)Gal(b1-4)GlcNAc(b1-3)Gal(b1-4)GlcNAc(b1-3)Gal(b1-4)GlcNAc(b1-2)Man(a1-6)]Man(b1-4)GlcNAc(b1-4)GlcNAc
How it was run: as §1

[20] = molecular target: GlcNAc(b1-3)Gal(b1-4)GlcNAc(b1-3)Gal(b1-4)GlcNAc(b1-3)Gal(b1-4)GlcNAc(b1-3)Gal(b1-4)GlcNAc(b1-2)Man(a1-3)[GlcNAc(b1-3)Gal(b1-4)GlcNAc(b1-3)Gal(b1-4)GlcNAc(b1-3)Gal(b1-4)GlcNAc(b1-3)Gal(b1-4)GlcNAc(b1-2)Man(a1-6)]Man(b1-4)GlcNAc(b1-4)[Fuc(a1-6)]GlcNAc
How it was run: as §1

[21] = molecular target: GlcNAc(b1-3)Gal(b1-4)GlcNAc(b1-3)Gal(b1-4)GlcNAc(b1-3)Gal(b1-4)GlcNAc(b1-3)Gal(b1-4)GlcNAc(b1-2)[GlcNAc(b1-3)Gal(b1-4)GlcNAc(b1-3)Gal(b1-4)GlcNAc(b1-3)Gal(b1-4)GlcNAc(b1-3)Gal(b1-4)GlcNAc(b1-6)]Man(a1-6)[GlcNAc(b1-3)Gal(b1-4)GlcNAc(b1-3)Gal(b1-4)GlcNAc(b1-3)Gal(b1-4)GlcNAc(b1-3)Gal(b1-4)GlcNAc(b1-2)Man(a1-3)]Man(b1-4)GlcNAc(b1-4)[Fuc(a1-6)]GlcNAc
How it was run: as §1

[22] = molecular target: GlcNAc(b1-3)Gal(b1-4)GlcNAc(b1-3)Gal(b1-4)GlcNAc(b1-3)GalNAc
How it was run: as §1

[23] = molecular target: GlcNAc(b1-3)Gal(b1-4)GlcNAc(b1-3)GalNAc
How it was run: as §1

[24] = molecular target: GlcNAc(b1-3)Gal(b1-4)GlcNAc(b1-3)[GlcNAc(b1-3)Gal(b1-4)GlcNAc(b1-3)]GalNAc
How it was run: as §1

[25] = molecular target: GlcNAc(b1-3)Gal(b1-4)GlcNAc(b1-6)[Gal(b1-3)]GalNAc
How it was run: as §1

[26] = molecular target: GlcNAc(b1-3)Gal(b1-4)GlcNAc(b1-6)[GlcNAc(b1-3)Gal(b1-3)]GalNAc
How it was run: as §1

[27] = molecular target: GlcNAc(b1-3)Gal(b1-4)GlcNAc(b1-6)[GlcNAc(b1-3)]Gal(b1-4)GlcNAc
How it was run: as §1

GlcNAc(b1-3)GalNAc = molecular target: GlcNAc(b1-3)GalNAc
How it was run: as §1

GlcNAc(b1-3)Man = molecular target: GlcNAc(b1-3)Man
How it was run: as §1

[28] = molecular target: GlcNAc(b1-3)[GlcNAc(b1-4)][GlcNAc(b1-6)]GlcNAc
How it was run: as §1

[29] = molecular target: GlcNAc(b1-3)[GlcNAc(b1-6)]Gal(b1-4)GlcNAc
How it was run: as §1

[30] = molecular target: GlcNAc(b1-3)[GlcNAc(b1-6)]GalNAc
How it was run: as §1

[31] = molecular target: GlcNAc(b1-4)Gal(b1-4)GlcNAc
How it was run: as §1

GlcNAc(b1-4)GlcNAc = molecular target: GlcNAc(b1-4)GlcNAc
How it was run: as §1

[32] = molecular target: GlcNAc(b1-4)GlcNAc(b1-4)GlcNAc
How it was run: as §1

B1: LlpA (Arthrobacter sp) (protein)
chain: MGSSHHHHHHSSGLVPRGSHMTLHPETALRPGAAATSPNSRYRLLYQTDGNLVLYGPDGPLWDSGTNGHGAGACIMQADGNLVLYGPNDEYVWDTETDNNPGSRLVIQDDGNAVIYRPDGSPLWATETCQPPGSADSHVLQSGSTLTPTHGIRSANGLYGLLYQTDGNLVFYGPDGPLWDSGTNGRGAGACIMQPDGNLVLYGPHDEYVWDTETDNNPGSRLVIQDDGNAVIYRPDGNPTWVTGTH
With B1 the “glycan array binding signal (z-score)” value [1] was 0.659, the “glycan array binding signal (z-score)” value [2] was -0.159 and the “glycan array binding signal (z-score)” value [3] was -0.18. The “glycan array binding signal (z-score)” value [4] was -0.029, the “glycan array binding signal (z-score)” value [5] was 1.2 and the “glycan array binding signal (z-score)” value [6] was -0.719. For the same binder, the “glycan array binding signal (z-score)” value (GlcNAc(b1-3)Fuc) was -0.471, the “glycan array binding signal (z-score)” value (GlcNAc(b1-3)Gal) was -0.463 and the “glycan array binding signal (z-score)” value [7] was 0.347. The “glycan array binding signal (z-score)” value (GlcNAc(b1-3)Gal(b1-4)Glc) was 0.123, the “glycan array binding signal (z-score)” value [8] was 0.043 and the “glycan array binding signal (z-score)” value [9] was 0.515. For the same binder, the “glycan array binding signal (z-score)” value [10] was 0.596, the “glycan array binding signal (z-score)” value [11] was 0.019 and the “glycan array binding signal (z-score)” value [12] was -0.689. For the same binder, the “glycan array binding signal (z-score)” value [13] was 0.503, the “glycan array binding signal (z-score)” value [14] was 2.11 and the “glycan array binding signal (z-score)” value [15] was 1.02. The “glycan array binding signal (z-score)” value [16] was 1.25, the “glycan array binding signal (z-score)” value [17] was 1.79 and the “glycan array binding signal (z-score)” value [18] was 0.416. The “glycan array binding signal (z-score)” value [19] was 0.815, the “glycan array binding signal (z-score)” value [20] was 2.07 and the “glycan array binding signal (z-score)” value [21] was 1.82. The “glycan array binding signal (z-score)” value [22] was 0.18, the “glycan array binding signal (z-score)” value [23] was 1.61 and the “glycan array binding signal (z-score)” value [24] was 0.884. For the same binder, the “glycan array binding signal (z-score)” value [25] was -0.319, the “glycan array binding signal (z-score)” value [26] was 0.23 and the “glycan array binding signal (z-score)” value [27] was -0.695. For the same binder, the “glycan array binding signal (z-score)” value (GlcNAc(b1-3)GalNAc) was 0.451, the “glycan array binding signal (z-score)” value (GlcNAc(b1-3)Man) was 1.02 and the “glycan array binding signal (z-score)” value [28] was -0.817. The “glycan array binding signal (z-score)” value [29] was 1.12, the “glycan array binding signal (z-score)” value [30] was -0.373 and the “glycan array binding signal (z-score)” value [31] was 0.483. The “glycan array binding signal (z-score)” value (GlcNAc(b1-4)GlcNAc) was 0.312 and the “glycan array binding signal (z-score)” value [32] was -0.587.
